The values below come from paper doi:10.1101/2025.01.15.633155.

The chains behind the UniProt entries cited, without tags or fusion partners. Where a name states a change or a piece, a line headed by the entry shows the natural chain unless it says otherwise. Residues count along the entry.
UniProt Q9LJF3: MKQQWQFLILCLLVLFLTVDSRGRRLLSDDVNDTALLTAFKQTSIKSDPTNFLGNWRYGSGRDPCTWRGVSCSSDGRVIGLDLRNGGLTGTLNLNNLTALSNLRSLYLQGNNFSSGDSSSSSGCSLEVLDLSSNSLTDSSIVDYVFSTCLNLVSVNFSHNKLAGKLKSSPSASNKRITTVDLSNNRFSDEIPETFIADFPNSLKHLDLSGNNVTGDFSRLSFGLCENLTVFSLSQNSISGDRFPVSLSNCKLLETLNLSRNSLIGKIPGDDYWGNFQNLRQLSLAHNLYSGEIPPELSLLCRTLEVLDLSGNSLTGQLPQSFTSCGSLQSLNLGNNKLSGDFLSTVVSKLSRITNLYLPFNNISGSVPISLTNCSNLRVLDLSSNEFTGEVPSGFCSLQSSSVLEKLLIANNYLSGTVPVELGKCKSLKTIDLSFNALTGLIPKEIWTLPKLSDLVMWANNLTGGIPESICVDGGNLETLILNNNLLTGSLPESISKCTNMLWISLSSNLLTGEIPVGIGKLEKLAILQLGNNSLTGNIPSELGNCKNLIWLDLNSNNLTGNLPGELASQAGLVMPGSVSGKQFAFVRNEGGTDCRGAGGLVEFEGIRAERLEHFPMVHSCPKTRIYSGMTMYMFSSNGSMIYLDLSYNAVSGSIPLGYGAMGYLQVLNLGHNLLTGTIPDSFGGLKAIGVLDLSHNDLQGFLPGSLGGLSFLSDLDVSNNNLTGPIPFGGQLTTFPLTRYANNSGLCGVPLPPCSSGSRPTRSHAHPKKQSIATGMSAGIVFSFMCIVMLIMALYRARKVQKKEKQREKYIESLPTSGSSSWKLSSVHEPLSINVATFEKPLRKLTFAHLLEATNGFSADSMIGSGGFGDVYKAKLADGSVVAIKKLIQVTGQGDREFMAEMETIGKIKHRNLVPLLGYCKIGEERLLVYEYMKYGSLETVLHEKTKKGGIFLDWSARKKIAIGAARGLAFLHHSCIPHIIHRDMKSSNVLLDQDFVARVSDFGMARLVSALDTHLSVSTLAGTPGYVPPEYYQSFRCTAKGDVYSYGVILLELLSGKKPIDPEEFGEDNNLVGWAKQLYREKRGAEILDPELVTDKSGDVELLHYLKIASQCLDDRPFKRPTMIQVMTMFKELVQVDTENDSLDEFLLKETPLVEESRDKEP
BRL3, BiFC fusion: residues 24-1164 of Q9LJF3
BRL3 kinase domain (amino acids 797–1,164), yeast two-hybrid fusion: residues 797-1164 of Q9LJF3

The target in assay [1] is BRL3 kinase domain (amino acids 797–1,164), yeast two-hybrid fusion (Arabidopsis thaliana) (UniProt Q9LJF3). Put plainly: two-hybrid.
For assay [2], the target named is BRL3–mVenus (Arabidopsis thaliana) (UniProt Q9LJF3). Put plainly: FRET or BRET. For orientation: In BRET a luciferase serves as donor, and the signal depends on an acceptor being close.
Assay [3] deals with BRI1-LIKE 3 (BRL3)–GFP (Arabidopsis thaliana) (UniProt Q9LJF3). Description: co-IP.
Assay [4] addresses BRL3, BiFC fusion (Arabidopsis thaliana) (UniProt Q9LJF3). Put plainly: split reporter.

No constants are given. Whether binding was seen depends on the method and setting. For some assays here: Binding seen in cells or lysates may run through a third protein. Some entries that bind do so weakly or less than the wild type. For some assays here: Where a sequence is shown, tags or fusion partners need not be part of it.

B1: ERD14^polyLys (amino acids 91–185), yeast two-hybrid fusion (domain or fragment, UniProt P42763 91-185)
chain: DGEKRKKKKEKKKPTTEVEVKEEEKKGFMEKLKEKLPGHKKPEDGSAVAAAPVVVPPPVEEAHPVEKKGILEKIKEKLPGYHPKTTVEEEKKDKE
With B1, the binding result in assay [1] is “binds”.

B2: ERD14^polyLys–2xmCherry (domain or fragment, UniProt P42763 91-185)
chain: B1 chain
For B2, the binding result in assay [2] is listed as “binds”.

B3: CLV1 (receptor, UniProt Q9SYQ8 25-980)
chain: YTDMEVLLNLKSSMIGPKGHGLHDWIHSSSPDAHCSFSGVSCDDDARVISLNVSFTPLFGTISPEIGMLTHLVNLTLAANNFTGELPLEMKSLTSLKVLNISNNGNLTGTFPGEILKAMVDLEVLDTYNNNFNGKLPPEMSELKKLKYLSFGGNFFSGEIPESYGDIQSLEYLGLNGAGLSGKSPAFLSRLKNLREMYIGYYNSYTGGVPPEFGGLTKLEILDMASCTLTGEIPTSLSNLKHLHTLFLHINNLTGHIPPELSGLVSLKSLDLSINQLTGEIPQSFINLGNITLINLFRNNLYGQIPEAIGELPKLEVFEVWENNFTLQLPANLGRNGNLIKLDVSDNHLTGLIPKDLCRGEKLEMLILSNNFFFGPIPEELGKCKSLTKIRIVKNLLNGTVPAGLFNLPLVTIIELTDNFFSGELPVTMSGDVLDQIYLSNNWFSGEIPPAIGNFPNLQTLFLDRNRFRGNIPREIFELKHLSRINTSANNITGGIPDSISRCSTLISVDLSRNRINGEIPKGINNVKNLGTLNISGNQLTGSIPTGIGNMTSLTTLDLSFNDLSGRVPLGGQFLVFNETSFAGNTYLCLPHRVSCPTRPGQTSDHNHTALFSPSRIVITVIAAITGLILISVAIRQMNKKKNQKSLAWKLTAFQKLDFKSEDVLECLKEENIIGKGGAGIVYRGSMPNNVDVAIKRLVGRGTGRSDHGFTAEIQTLGRIRHRHIVRLLGYVANKDTNLLLYEYMPNGSLGELLHGSKGGHLQWETRHRVAVEAAKGLCYLHHDCSPLILHRDVKSNNILLDSDFEAHVADFGLAKFLVDGAASECMSSIAGSYGYIAPEYAYTLKVDEKSDVYSFGVVLLELIAGKKPVGEFGEGVDIVRWVRNTEEEITQPSDAAIVVAIVDPRLTGYPLTSVIHVFKIAMMCVEEEAAARPTMREVVHMLTNPPKSVANLIAF
B3: in assay [2], the binding result is “no binding”.

B4: ERD14–3xHA (protein, UniProt P42763 1-185)
chain: MAEEIKNVPEQEVPKVATEESSAEVTDRGLFDFLGKKKDETKPEETPIASEFEQKVHISEPEPEVKHESLLEKLHRSDSSSSSSSEEEGSDGEKRKKKKEKKKPTTEVEVKEEEKKGFMEKLKEKLPGHKKPEDGSAVAAAPVVVPPPVEEAHPVEKKGILEKIKEKLPGYHPKTTVEEEKKDKE
As for B4, the binding entry in assay [3] was “binds”.

B5: ERD14 full length, BiFC fusion (protein, UniProt P42763 1-185)
chain: B4 chain
B5: in assay [4], the binding result is given as “binds”.

B6: ERD14 full length, yeast two-hybrid fusion (protein, UniProt P42763 1-185)
chain: B4 chain
Take B6: in assay [1], the binding result is “binds”.

B7: BRI1 KINASE INHIBITOR 1 (BKI1), BiFC fusion (protein, UniProt Q9FMZ0 1-337)
chain: METNLQQVKNSSQTFSEKQNPKQEASPSPISSTCSSPSHDFSFTISLQPLSSSSKHISPTLRSPSKTTSSYQQTDPFAVDLSPADEIFFHGHLLPLHLLSHLPVSPRTSTGSYNDGFTLPVKDILPDQPTNNNNNTENAITNISTEAKDDNTEDKAEGEIRVKTKPIKSFSLFGLSKWRKGFESNEREQEQQQQKIKKPMSLDLSHAVKKYIRMLFQKRGNGTQFWNRRQTSSYSFSSSLMGPNGNSKTMINGSYNKRDLIRGRRGELFSAPASMRTSPTNSGHLRVSTAGLSSSSGSTSSSSSDSTMEELQAAIQAAIAHCKNSSAVDRDDKVKDS
In the case of B7, the binding entry in assay [4] is “no binding”.

B8: BKI1 full length, yeast two-hybrid fusion (protein, UniProt Q9FMZ0 1-337)
chain: B7 chain
As for B8, the binding entry in assay [1] is given as “no binding”.
